Among all 320,000 compounds or so, about 740 (0.23%) were called active. The shares of active, inactive and inconclusive entries below differ from those in the screen. Calls follow the shape of the dose curve; as a rule, active = well fitted activation curve with a large enough effect; inconclusive = small, poorly fitted or top-dose-only effect; inactive = no such curve, though single readings can be large or run the other way. Where the call is inconclusive, the potency comes from a doubtful curve fit.
Experiment: qHTS Assay for Small Molecule Inhibitors of Mitochondrial Division or Activators of Mitochondrial Fusion; also: nearly all actives have a fitted effect of over 45% in size
Details: S. cerevisiae fusion-defective mutant growth rescue, CellTiterGlo 48 h; series mostly up to 46.1 µM
Outline: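 Compounds are tested for their ability to restore growth of mitochondrial fusion-defective yeast strains at non-permissive 37C in YPEG medium over 48 hours. Viability is quantified by luciferase luminescence.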
Potency is read from the fitted curve at half-maximal effect.

**Q.** Which Potency does the source give for `O=c1cc(CSc2nnnn2-c2ccccc2)nc2scc(-c3ccccc3)n12` here?
**A.** Its Potency is “inactive”.

**Q.** Which Potency does the source give for `O=C(Nc1ccon1)c1ccc(Cl)c(S(=O)(=O)N2CCCCC2)c1` here?
**A.** The Potency was “inactive”.

**Q.** Which Potency does the source give for `O=C(NC(=S)N1CCN(c2c(Cl)cccc2[N+](=O)[O-])CC1)c1cccs1` here?
**A.** Its Potency is inconclusive: 20 µM [activator, single point].

**Q.** With `CCC(=O)N1N=C(c2cccs2)CC1c1ccc(C)cc1` (configuration not stated) as the compound, how does the Potency read?
**A.** The Potency was “inactive”.

**Q.** For `Cc1ccc(/C=[N+](\[O-])c2ccc(N(C)C)cc2)c2nsnc12`, which Potency is on record?
**A.** The Potency was “inactive”.

**Q.** For `COc1cccc(N2CCN(S(=O)(=O)c3ccc4c(c3)CC(C)N4C(=O)C3CC3)CC2)c1` (configuration not stated), which Potency is on record?
**A.** Its Potency is inconclusive: 10 µM [activator, partial curve].

**Q.** Which Potency does the source give for `COc1cccc(CNc2ccc([N+](=O)[O-])cc2Cl)c1O` here?
**A.** Its Potency is inconclusive: 35.5 µM [activator, single point].

**Q.** With `CC(OC(=O)c1ccc(-c2ccc(O)cc2)cc1)C(=O)NC1CCCCC1C` (configuration not stated) as the compound, how does the Potency read?
**A.** The Potency was inconclusive: 12.6 µM [activator, partial curve].

**Q.** For `CC(=O)NCc1cc(-c2ccc(Cl)cc2)no1`, which Potency is on record?
**A.** Its Potency is “inactive”.

**Q.** For `COC(=O)N/N=C/c1cn(Cc2c(Cl)cccc2Cl)c2ccccc12`, which Potency is on record?
**A.** Its Potency is inconclusive: 20 µM [activator, single point].

**Q.** Which Potency does the source give for `CCc1c(C(=O)O)[nH]c2ccc(Br)cc12` here?
**A.** Its Potency is “inactive”.

**Q.** With `COc1ccc2oc(=O)c(-c3csc(Nc4cccc(O)c4)n3)cc2c1` as the compound, how does the Potency read?
**A.** Its Potency is active: 15.8 µM.

**Q.** Which Potency does the source give for `C=CCC1(C)C(=O)N(c2ccccc2)c2ccccc21` (configuration not stated) here?
**A.** The Potency was inconclusive: 10 µM [activator, partial curve].

**Q.** With `CC1CCCN(C(=O)COC(=O)c2cc(-c3cccs3)nn2-c2ccccc2)C1` (configuration not stated) as the compound, how does the Potency read?
**A.** Its Potency is inconclusive: 35.5 µM [activator, single point].

**Q.** With `CC(C)CCOCC(=O)Oc1ccccc1C(=O)O` as the compound, how does the Potency read?
**A.** Its Potency is “inactive”.

**Q.** Which Potency does the source give for `CNC(=O)c1cc2c(ccc3ccccc32)o1` here?
**A.** The Potency was “inactive”.

**Q.** With `CC(C)c1nc2sc3c(=O)[nH]c(=S)[nH]c3c2c2c1CCC2` as the compound, how does the Potency read?
**A.** Its Potency is active: 12.6 µM.

**Q.** For `Cc1cc(C(=O)OCC(=O)NC(=O)c2cccn2C)c2ccccc2n1`, which Potency is on record?
**A.** Its Potency is inconclusive: 31.6 µM [activator, single point].

**Q.** With `COc1ccc(OC)c(NC(=O)CSc2ncnc3c2cnn3-c2ccccc2Cl)c1` as the compound, how does the Potency read?
**A.** Its Potency is inconclusive: 14.1 µM [activator, partial curve].

**Q.** For `Cc1cccc(Oc2nc(CN3CCOCC3)nc3sc4c(c23)CCCC4)c1`, which Potency is on record?
**A.** The Potency was inconclusive: 25.1 µM [activator, single point].

**Q.** With `COc1ccc(C(=O)c2sc3nc(C)cc(-c4cccs4)c3c2N)cc1OC` as the compound, how does the Potency read?
**A.** Its Potency is inconclusive: 22.4 µM [activator, single point].

**Q.** For `O=C(COc1ccc(Cl)cc1)Nc1ccc(Cc2ccncc2)cc1`, which Potency is on record?
**A.** Its Potency is inconclusive: 35.5 µM [activator, single point].

Reference: PubChem BioAssay AID485298 (National Center for Advancing Translational Sciences (NCATS), 2010)
